{
  "source": "patent US10800809",
  "about": "(dated 2020)",
  "assay": "general procedure: solution-phase peptide synthesis; PyBOP/HOBt/diisopropyl ethyl amine",
  "data": [
    {"substance": "carfilzomib", "values": [
      {"measurement": "purity (crude or final not stated)", "setting": "coupling step, HPLC, maleate", "result": 26, "unit": "%"},
      {"measurement": "final HPLC purity", "setting": "coupling step, maleate", "result": 25.91, "unit": "%"},
      {"measurement": "final HPLC purity", "setting": "coupling step, maleate salt", "result": 99, "unit": "%"},
      {"measurement": "final HPLC purity", "setting": "late stage modification step, maleate salt", "result": 99.8, "unit": "%"},
      {"measurement": "final HPLC purity", "setting": "purification step, maleate salt", "result": 99.8, "unit": "%"}
    ]}
  ]
}
